Series [1] addresses T1, ZBP1 Zα1 (Homo sapiens) (UniProt Q9H171).
T1 sequence (looked up): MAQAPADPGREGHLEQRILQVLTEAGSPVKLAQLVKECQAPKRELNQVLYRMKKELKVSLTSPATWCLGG
In words: NMR. To be noted: 20 mM NaPi pH 6.4, 100 mM KCl, 1 mM DTT, 0.5 mM EDTA (LiCl replaces KCl where noted); competition 40 nM); recombinant protein; residues 1-70; protein details: N-terminal 6xHis, thrombin site, T7 tag.

Series [2] addresses T2, ZBP1 Zα2 (Homo sapiens) (UniProt Q9H171).
T2 sequence (looked up): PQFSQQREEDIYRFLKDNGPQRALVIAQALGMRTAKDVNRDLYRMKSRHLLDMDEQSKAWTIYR
The series can be described thus: NMR. To be noted: LLPS; 20 mM NaPi pH 6.4, 100 mM KCl, 1 mM DTT, 0.5 mM EDTA (LiCl replaces KCl where noted); competition 40 nM); recombinant protein; residues 103-166; protein details: N-terminal 6xHis, thrombin site, T7 tag.

The record followed here is article PMC13136903, “Zα and Zβ domains of ADAR1 and ZBP1 bind G-quadruplexes with nanomolar affinities, establishing Zβ as a G-quadruplex-specific domain”.

For some assays here: The comparison behind a weaker result is the experiment's own reference, which may not be listed here. Protein sequences can lack the tags named with them. For some assays here: For at least one entry, the source does not settle the construct or the ends of the probe. For some assays here: At least one verdict rests on a figure or table, not on a statement of the authors.

In the case of CCGACCGCCCGACCG [ALU-mutRNA], in series [1], the binding result was “binds more weakly”.

Take GGGAGGGCGGGAGGG [ALU-GQRNA]: in series [2], the binding result is “binds”.
